Reference: patent US20150285810A1
Results are given in words; binding and its absence hold for the method and conditions named. For some assays here: Binding can be weak; no strength is given. Sequences can lack the tags named with a protein.

Columns and labels:
[1] = target: purified cyclin B1/cdk1 complex; experiment: GST-fragment beads incubated with cyclin B1/cdk1 complex in NP40 buffer, Western blot
[2] = target: purified cyclin B1/cdk1 complex; experiment: condition: 0.2 µg/ml cyclin B1/cdk1 complex on beads pre-bound with 5 µg fragment; GST-fragment beads incubated with cyclin B1/cdk1 complex in NP40 buffer, Western blot

Row | Binder | binding [1] | binding [2]
1 | iASPP (1-240)-GST (protein, not shown: a dimerising Fc or GST) MDSEAFQSARDFLDMNFQSLAMKHMDLKQMELDTAAAKVDELTKQLESLWSDSPAPPGPQAGPPSRPPRYSSSSIPEPFGSRGSPRKAATDGADTPFGRSESAPTLHPYSPLSPKGRPSSPRTPLYLQPDAYGSLDRATSPRPRAFDGAGSSLGRAPSPRPGPGPLRQQGPPTPFDFLGRAGSPRGSPLAEGPQAFFPERGPSPRPPATAYDAPASAFGSSLLGSGGSAFAPPLRAQDDL | binds | 
2 | iASPP (249-482)-GST (protein, not shown: a dimerising Fc or GST) AWNESDLDVAYEKKPSQTASYERLDVFARPASPSLQLLPWRESSLDGLGGTGKDNLTSATLPRNYKVSPLASDRRSDAGSYRRSLGSAGPSGTLPRSWQPVSRIPMPPSSPQPRGAPRQRPIPLSMIFKLQNAFWEHGASRAMLPGSPLFTRAPPPKLQPQPQPQPQPQSQPQPQLPPQPQTQPQTPTPAPQHPQQTWPPVNEGPPKPPTELEPEPEIEGLLTPVLEAGDVDEG |  | no binding
